PubChem BioAssay AID1159578 | Peter MacCallum Cancer Centre, 2015

Test: 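Knock-downs that alter how fast lymphatic endothelial cells migrate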 (primary screen)
Cell system: human lymphatic endothelial cells
Reagent: siRNA pool against human genes, 40 nM
Time to read-out: 48 h after transfection
Read-out: 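High-content imaging of dye-stained cells in a scratch assay measures filled wound area and nuclei per well; duplicate means given as ratio to mock and robust z-score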
Reading the numbers: migration robust z-score: higher = faster migration into the scratch; nuclei per well: higher = more cells in the well
Rule for the call: 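Migration changed when robust z exceeds 2 or falls below -2 and mean nuclei number is at least 3300; otherwise not called changed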
Calls: active = migration changed; inactive = no migration change, or too few cells
This is one part, drawn at random, of about 18,000 reagents. Of all reagents, about 1,030 (5.7%) got an active call. 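Inactive calls also include pools with fewer than 3300 nuclei, whose migration was not assessed.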 Raw values vary from plate to plate and are shown uncorrected. Not all columns of the deposit are shown.

After knock-down of MAPRE3 (GeneID 22924), the screen gave migration robust z-score 1.22; migration class with cell-count check migration z between -2 and 2; enough cells; nuclei per well, duplicate mean 6105; inactive.
Knock-down of SERPINA9 (GeneID 327657) resulted in: migration robust z-score 0.94; migration class with cell-count check migration z between -2 and 2; enough cells; nuclei per well, duplicate mean 6031; inactive.
Knock-down of MAMDC4 (GeneID 158056) gave: migration robust z-score -2.22; migration class with cell-count check migration z below -2; enough cells; nuclei per well, duplicate mean 5127; active.
After knock-down of RAB6B (GeneID 51560), the screen gave migration robust z-score -0.34; migration class with cell-count check migration z between -2 and 2; enough cells; nuclei per well, duplicate mean 5636; inactive.
Against HAL (GeneID 3034), the entry reads migration robust z-score -0.2; migration class with cell-count check migration z between -2 and 2; enough cells; nuclei per well, duplicate mean 5424; inactive.
With knock-down of CDCA8 (GeneID 55143) the results were migration robust z-score -0.8; migration class with cell-count check migration z between -2 and 2; enough cells; nuclei per well, duplicate mean 3846; inactive.
For SH3BGRL3 (GeneID 83442), the entry reads migration robust z-score -0.66; migration class with cell-count check migration z between -2 and 2; enough cells; nuclei per well, duplicate mean 4814; inactive.
For GRAMD2A (GeneID 196996), the entry reads migration robust z-score 0.78; migration class with cell-count check migration z between -2 and 2; enough cells; nuclei per well, duplicate mean 7284; inactive.
Knock-down of CCNE1 (GeneID 898) came out at: migration robust z-score -1.38; migration class with cell-count check migration z between -2 and 2; enough cells; nuclei per well, duplicate mean 5236; inactive.
Depletion of SAA4 (GeneID 6291) gave: migration robust z-score 0.7; migration class with cell-count check migration z between -2 and 2; enough cells; nuclei per well, duplicate mean 7420; inactive.
ELP2 (GeneID 55250) scored migration robust z-score -2.66; migration class with cell-count check migration z below -2; enough cells; nuclei per well, duplicate mean 3906; active.
For PSTPIP2 (GeneID 9050), the values are migration robust z-score -1.53; migration class with cell-count check under 3300 nuclei; migration not judged; nuclei per well, duplicate mean 3266; inactive.
Silencing of DBF4B (GeneID 80174) gave: migration robust z-score -0.35; migration class with cell-count check migration z between -2 and 2; enough cells; nuclei per well, duplicate mean 6002; inactive.
CMTM2 (GeneID 146225) showed migration robust z-score 0.03; migration class with cell-count check migration z between -2 and 2; enough cells; nuclei per well, duplicate mean 6480; inactive.
After knock-down of ROPN1L (GeneID 83853), the screen gave migration robust z-score -1.25; migration class with cell-count check migration z between -2 and 2; enough cells; nuclei per well, duplicate mean 5416; inactive.
MKLN1 (GeneID 4289) gave migration robust z-score 0.66; migration class with cell-count check migration z between -2 and 2; enough cells; nuclei per well, duplicate mean 5822; inactive.
For PEX1 (GeneID 5189), the values are migration robust z-score 0.6; migration class with cell-count check migration z between -2 and 2; enough cells; nuclei per well, duplicate mean 5900; inactive.
JAGN1 (GeneID 84522) showed migration robust z-score 1.14; migration class with cell-count check migration z between -2 and 2; enough cells; nuclei per well, duplicate mean 6811; inactive.
For MOB3C (GeneID 148932), the entry reads migration robust z-score -1.17; migration class with cell-count check migration z between -2 and 2; enough cells; nuclei per well, duplicate mean 6208; inactive.
Depletion of MESP2 (GeneID 145873) resulted in: migration robust z-score -2.75; migration class with cell-count check migration z below -2; enough cells; nuclei per well, duplicate mean 3714; active.
Depletion of SMG7 (GeneID 9887) gave: migration robust z-score 0.59; migration class with cell-count check migration z between -2 and 2; enough cells; nuclei per well, duplicate mean 5074; inactive.

Sorted by “nuclei per well, duplicate mean” (ascending): 2 of the entries above.
DBF4B (GeneID 80174) → migration robust z-score: -0.35; migration class with cell-count check: migration z between -2 and 2; enough cells; nuclei per well, duplicate mean: 6002; Outcome: inactive
CMTM2 (GeneID 146225) → migration robust z-score: 0.03; migration class with cell-count check: migration z between -2 and 2; enough cells; nuclei per well, duplicate mean: 6480; Outcome: inactive
